In the RNAGym collection of RNA variant scans (doi:10.1126/science.aae0568):
Variants at the floor of the assay are shown more often than the library holds them.

B1: tRNA (parent)
chain: GUUCCGUUGGCGUAAUGGUAACGCGUCUCCCUCCUAAGGAGAAGACUGCGGGUUCGAGUCCCGUACGGAACG

Variants of: B1
Experiment: yeast fitness relative to wild type (ratio to wild type); higher = fitter; tRNA-Arg(CCU), competitive growth, 37 C, YPD
In short: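 For this measurement, the tRNA-Arg(CCU) gene was varied by chemical synthesis at a 3% per-site mutation rate across 69 sites, and each variant was placed at the native genomic locus in Saccharomyces cerevisiae. The pooled strains went through a 24-hour competition in YPD at 37°C in six parallel replicates, with amplicons from start and end populations read by 100-nucleotide paired-end sequencing. Darwinian fitness relative to wild type followed from the change in each genotype's frequency. Genotypes needed ≥ 100 starting reads, and estimates < 0.5 were set to 0.5.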

Row | Variant | yeast fitness
1 | U28C A43G A57C A65U | ≤ 0.5
2 | C31G G48A U54C | ≤ 0.5
3 | G10A G17A A36G A40C U64C | ≤ 0.5
4 | C34U A57G C62G | ≤ 0.5
5 | C11A C30A G50C | ≤ 0.5
6 | A21G C30A A36U U53G | ≤ 0.5
7 | C4A C30G G52A | ≤ 0.5
8 | G18A U26C | 0.648
9 | C22G C27G C49U | ≤ 0.5
10 | G10A G17A U19A C29U | ≤ 0.5
11 | G25C C29G G41A C49U | ≤ 0.5
12 | U2A G12A A21C | 0.515
13 | C5G C34G A57G A69U | ≤ 0.5
14 | U32G C34U A57G | 0.561
15 | U2A G50A | 0.858
16 | U28A G38A U59C G67A | ≤ 0.5
17 | A21C C33U U35C | ≤ 0.5
18 | A20C C29G C61U | ≤ 0.5
19 | C11A G25A C30U A57C | ≤ 0.5
20 | C49A A57C A65G | ≤ 0.5
21 | U28A A40G A65U | ≤ 0.5
22 | C5U C24A U32C | 0.565
23 | C5U U8A G18C A37U G56C C61U | ≤ 0.5
24 | C11A A37U A69U | ≤ 0.5

Row | Variant | yeast fitness
25 | U16C U32C | 0.918
26 | C24G A45U A57U | ≤ 0.5
27 | U26C A42G U54A U59A | ≤ 0.5
28 | U2A C46A | 1.03
29 | C33U C34A A43C G48A | ≤ 0.5
30 | G12C C33A | 0.682
31 | U2G U54G | ≤ 0.5
32 | C22G G23A U35A A57G C62A | ≤ 0.5
33 | C5A G17C G18C G58A U59G | 0.535
34 | C5U A14G U53A | ≤ 0.5
35 | U3A A36U A43G G52C | ≤ 0.5
36 | U35C G63C A65C | ≤ 0.5
37 | C4G A40U A45U A65G | ≤ 0.5
38 | U16C C22U A37U C49A C62U | 0.6
39 | U28A A40C C46G | ≤ 0.5
40 | C49G U53C C55A C61U U64G | ≤ 0.5
41 | C29A C49U G63A | ≤ 0.5
42 | U8C A14U G48C A70C | ≤ 0.5
43 | C5A C11A U26A C30G A43C C49U | ≤ 0.5
44 | C4A A20C A42U | ≤ 0.5
45 | U7G C22U G51C G58A | ≤ 0.5
46 | C31G C49G A70C | ≤ 0.5
47 | U7C C27G A42U G48A | ≤ 0.5
48 | C5G U8C A36U G41A A65U | ≤ 0.5

Row | Variant | yeast fitness
49 | C4A C27U G39C | 0.632
50 | U7A U59A C60U | ≤ 0.5
51 | A45C C62G A65U | ≤ 0.5
52 | G18C A40G | 0.64
53 | A42C C46A A57U | ≤ 0.5
54 | G6A U19C C29U G48C | ≤ 0.5
55 | A14G G23A A70C | ≤ 0.5
56 | A14G A43C C55G | ≤ 0.5
57 | A37G A45U C62U G68C | ≤ 0.5
58 | A42C U59A A69U | 0.528
59 | A20C C30A C34G A43U | ≤ 0.5
60 | G9C C31U A36G A43G | ≤ 0.5
61 | U16A C49U C60G G67A | ≤ 0.5
62 | C4G C11G G52A | ≤ 0.5
63 | C11U G56A | 0.901
64 | G17C A21G C27U C33G A42U A70C | ≤ 0.5
65 | U7G A37G C55G | ≤ 0.5
66 | C5U A14C C31A G52C | ≤ 0.5
67 | U19C G50A U53A C61U | ≤ 0.5
68 | C33U A43G G67C | ≤ 0.5
69 | U16A U26A C30G U59C | ≤ 0.5
70 | U47A C62U | 0.842
71 | U8C U32G A45G C49U A70U | ≤ 0.5
72 | C11A G48A C55U | ≤ 0.5

Row | Variant | yeast fitness
73 | C5G G25A A42C G68A | ≤ 0.5
74 | C29G A57C C66G | ≤ 0.5
75 | U26C A45U G68C | ≤ 0.5
76 | C29A A40C C49U U53G | ≤ 0.5
77 | U16G G51A C61G | ≤ 0.5
78 | G12A C49U C60G | ≤ 0.5
79 | U7G G9A U28G C46G C49U A69C | ≤ 0.5
80 | U26A C29G U53A | ≤ 0.5
81 | C27G G63C | 0.582
82 | G10A U16A A65G C66U | ≤ 0.5
83 | G10C C30G C46U | ≤ 0.5
84 | U13G U32A C33A | ≤ 0.5
85 | C24G G63A A65G G67A | ≤ 0.5
86 | U2G C33A C49G G67C | ≤ 0.5
87 | C5G C30A C31A C49U C55G | 0.544
88 | A20U G25A U28C G44A C46U G48A C60G C62A C66G | ≤ 0.5
89 | G9C C30U A37C C46U | ≤ 0.5
90 | U8C U19A C33U | ≤ 0.5
91 | C29G C46U C61A G63C | ≤ 0.5
92 | C29U C61U | 0.706
93 | G52A A57C A65C | 0.647
94 | U3G U16G A21G C29A U32C C33U C34A | 0.788
95 | U8A G25A U26A A42C | ≤ 0.5
96 | C5U U16A C34A G52A A70U | ≤ 0.5

Row | Variant | yeast fitness
97 | G25A G52U | 0.627
98 | G17C G18C C66U | ≤ 0.5
99 | G6A C11U C60U C61A | ≤ 0.5
100 | G10C U26A C49U G68A A69C | ≤ 0.5
101 | C33U C34U G38C | ≤ 0.5
102 | C4U G25C C34U A65U | ≤ 0.5
103 | G25C A37G A57C | ≤ 0.5
104 | A40C A45G G63A G68A | ≤ 0.5
105 | G18A C27U C31A C46A G52A G63C | ≤ 0.5
106 | G6C A15G A21G G25A C55A | ≤ 0.5
107 | C5G C34G G68C | ≤ 0.5
108 | C27U C29A A43G A57U | ≤ 0.5
109 | G12C U26A G67U | ≤ 0.5
110 | A14G A15C C30A A69C | ≤ 0.5
111 | C4U C30A U53C A70C | ≤ 0.5
112 | G6C G17C U32G A40C U64A C66G | ≤ 0.5
113 | C4G C27G G52C C62U G67A | ≤ 0.5
114 | U13G U19C G38C A42G G56C U59A A70U | ≤ 0.5
115 | U16C A21U A43U G67A | ≤ 0.5
116 | C4G C11G C34U G38A G44C | ≤ 0.5
117 | C5U C27A A42U G48A | ≤ 0.5
118 | G9C C11U A20C C31U A65C | ≤ 0.5
119 | A42C G48A G50A C61G | 0.553
120 | C4A C29U C55U G63A | ≤ 0.5

Row | Variant | yeast fitness
121 | U28C G39C C62G C66A | ≤ 0.5
122 | U8C A36U G38A | ≤ 0.5
123 | C61G C62G A70C | 0.512
124 | C29G G67A | 0.565
125 | U8C G17A G58A C61U | ≤ 0.5
126 | C22A C27U A43G C46G A69C | ≤ 0.5
127 | C5U A21U C30G G56A C66A | ≤ 0.5
128 | A40U A43C C62U G68A | ≤ 0.5
129 | G17C G25C C30U A65C | ≤ 0.5
130 | C11U A20G G23C C31U C46G A70U | ≤ 0.5
131 | C4A U35C G44C A57C | ≤ 0.5
132 | U13C A42U C55U | ≤ 0.5
133 | C31U A37G C61A | ≤ 0.5
134 | A15G C49A A57C A69U | ≤ 0.5
135 | C27U A43C U64C | 0.732
136 | C4G U28A C31G A57G C62U | 0.532
137 | G10A A21G C22A C31A A69C | ≤ 0.5
138 | A21U G23A A45C | ≤ 0.5
139 | A43U A57G C61U | ≤ 0.5
140 | G39C C62A C66U | ≤ 0.5
141 | G10A C60G | 0.531
142 | U2A G23A C29G C61U | ≤ 0.5
143 | U3A G17C A20C U28A | ≤ 0.5
144 | C55G U64C A65C | ≤ 0.5

Row | Variant | yeast fitness
145 | C31G C34U A40C G67U | ≤ 0.5
146 | A21U U32C A36G A37U G67A | ≤ 0.5
147 | G52A C55G A57U | ≤ 0.5
148 | C11G A14U C24A G52C A57C | ≤ 0.5
149 | C5G C11U A20C U54A | ≤ 0.5
150 | C22A U28C G58C | ≤ 0.5
151 | U8A G18C C24A U32C A70U | ≤ 0.5
152 | G18C A20G G23A G25C A37G A43C C55G G68A | ≤ 0.5
153 | C11G U26A U53A | ≤ 0.5
154 | G12C A36C A37U | ≤ 0.5
155 | C5G C11G A14U A15U C61U G68C | ≤ 0.5
156 | C4G U7A C29U | 0.504
157 | A14U C29G G41A C49G A57G | ≤ 0.5
158 | U7C A37G C49A | ≤ 0.5
159 | G44A C49A U59A | ≤ 0.5
160 | C4U G18A G67U | ≤ 0.5
161 | C11U C34U G38A G44C C60U C61U | ≤ 0.5
162 | G9A G10C C31A A36G | ≤ 0.5
163 | U28C A43C G44C G68C | ≤ 0.5
164 | A14U G44C G51A A70U | 0.596
165 | U32A C34A U53C U64A | ≤ 0.5
166 | U13A A15U A36C | ≤ 0.5
167 | U26G G50C C66U | ≤ 0.5
